{
  "source": "patent US5436128A",
  "about": "“Assay methods and compositions for detecting and evaluating the intracellular transduction of an extracellular signal” (Salk Institute Biotechnology/Industrial Associates, priority 1993, dated 1995)",
  "system": "59-0 cells",
  "assay": "Phosphatidyl inositol (PI) hydrolysis, negative control 59-0 cells",
  "note": "At least one structure is not confirmed: it was looked up by name or label, or the drawing left a doubt.",
  "data": [
    {"compound": "C[N+](C)(C)CCOC(N)=O", "note": "[carbamylcholine]", "values": [
      {"measurement": "response to carbamycholine treatment (PI hydrolysis)", "value": "did not respond"}
    ]}
  ]
}
